According to the supplement of paper PMC7877785:
± gives the uncertainty stated by the source. The uncertainty is large for many entries.

Experiment: self-splicing fitness, log relative to wild type (ln ratio); higher = more splicing; Tetrahymena group I intron in knt gene, E. coli kanamycin selection, DiMSum; sequences stand for … in CUCUCU…GGAGGGAAAAGUUAUCAGGCAUGCACCUGGUAGCUAGUCUUUAAACCAAUAGAUUGCAUCGGUUUAAAAGGCAAGACCGUCAAAUUGCGGGAAAGGGGUCAACAGCCGUUCAGUACCAAGUCUCAGGGGAAACUUUGAGAUGGCCUUGCAAAGGGUAUGGUAAUAAGCUGACGGACAUGGUCCUAACCACGCAGCCAAGUCCUAAGUCAACAGAUCUUCUGUUGAUAUGGAUGCAGUUCACAGACUAAAUGUCGGUCGGGGAAGAUGUAUUCUUCUCAUAAGAUAUAGUCGGACCUCUCCUUAAUGGGAGCUAGCGGAUGAAGUGAUGCAACACUGGAGCCGCUGGGAACUAAUUUGUAUGCGAAAGUAUAUUGAUUAGUUUUGGAGUACUCGUGGUCG
Method in brief: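 Six replicate transformations of E. coli BL21(DE3) with a pET-22b(+) library were grown overnight at 37°C or 30°C. The library randomised all eight P1ex-region intron nucleotides, the intron lying in the knt kanamycin-resistance gene, and plates were LB agar with or without 25 μg/mL kanamycin plus 100 μg/mL carbenicillin, 50 μM IPTG and 0.2% rhamnose. Pooled colonies were amplicon-sequenced on an Illumina HiSeq 2500, and fitness is the DiMSum error-weighted combination of wild-type-normalised replicate fold changes, kanamycin versus none.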

Row | Sequence | self-splicing fitness (ln) (30 °C) | self-splicing fitness (ln) (37 °C)
1 | ACUAAGCAAUAUUACGCUAA | -3.83 ± 0.43 | -1.92 ± 0.38
2 | CUAGAGCAAUAUUACGGAUA | -2.43 ± 0.51 | –
3 | CCAUAGCAAUAUUACGCUAU | -4.67 ± 0.72 | –
4 | GUUAAGCAAUAUUACGGUCA | -0.91 ± 0.098 | -0.943 ± 0.092
5 | GAUAAGCAAUAUUACGCCUC | -3.74 ± 0.53 | –
6 | AGAGAGCAAUAUUACGUAAC | -4.93 ± 1 | –
7 | GUCGAGCAAUAUUACGAAAA | -3.31 ± 0.54 | –
8 | UGUUAGCAAUAUUACGCGGU | – | -2.85 ± 0.61
9 | CCUGAGCAAUAUUACGUAUU | -2.38 ± 0.16 | -2.98 ± 0.21
10 | AUGUAGCAAUAUUACGUCAC | -1.55 ± 0.67 | –
11 | UAGGAGCAAUAUUACGGAAU | -4.06 ± 0.36 | -2.51 ± 0.33
12 | UCAAAGCAAUAUUACGCGAU | -4.8 ± 1 | –
13 | CUGAAGCAAUAUUACGUCCA | – | -2.36 ± 0.54
14 | AGGGAGCAAUAUUACGCCCU | -0.86 ± 1.4 | -0.693 ± 1.4
15 | CAUAAGCAAUAUUACGGAUG | -3.14 ± 0.14 | -2.17 ± 0.15
16 | GUCUAGCAAUAUUACGGCUA | -3.13 ± 0.74 | –
17 | CAAAAGCAAUAUUACGUUCC | -2.34 ± 0.33 | -2.17 ± 0.36
18 | GACCAGCAAUAUUACGUCUA | -1.44 ± 0.085 | -0.724 ± 0.081
19 | UAGGAGCAAUAUUACGCAUC | -3.06 ± 1.1 | –
20 | GAGCAGCAAUAUUACGGAUU | -1.2 ± 0.1 | 0.538 ± 0.11
21 | GGGGAGCAAUAUUACGAGAC | – | -1.5 ± 0.52

Copied from the list.
self-splicing fitness (ln) (30 °C) with UCAAAGCAAUAUUACGCGAU is entered as -4.8 ± 1
self-splicing fitness (ln) (30 °C) with CUAGAGCAAUAUUACGGAUA is entered as -2.43 ± 0.51
self-splicing fitness (ln) (30 °C) with GUCGAGCAAUAUUACGAAAA is entered as -3.31 ± 0.54
self-splicing fitness (ln) (30 °C) with GAUAAGCAAUAUUACGCCUC is entered as -3.74 ± 0.53

(list continues)

Row | Sequence | self-splicing fitness (ln) (30 °C) | self-splicing fitness (ln) (37 °C)
22 | GUUGAGCAAUAUUACGUGGU | – | -3.16 ± 0.61
23 | UUGAAGCAAUAUUACGUUAC | -4.79 ± 0.58 | –
24 | AUUGAGCAAUAUUACGGAGA | -2.77 ± 1.1 | –
25 | AGUAAGCAAUAUUACGGAGC | – | -2.01 ± 0.52
26 | GGGGAGCAAUAUUACGGGAA | -3.07 ± 1.1 | –
27 | ACAUAGCAAUAUUACGCCUC | -3.24 ± 0.54 | –
28 | AGAGAGCAAUAUUACGCGUU | – | -1.51 ± 0.84
29 | CCCAAGCAAUAUUACGCCCC | -3.96 ± 0.72 | –
30 | UGCGAGCAAUAUUACGCCAG | – | -2.12 ± 0.5
31 | UAAGAGCAAUAUUACGCCCG | -1.65 ± 0.57 | -0.605 ± 0.82
32 | GUAAAGCAAUAUUACGAAAA | -1.52 ± 0.15 | 0.0796 ± 0.28
33 | CGGGAGCAAUAUUACGUUCC | – | -1.84 ± 1.1
34 | GCCAAGCAAUAUUACGCAUG | -4.41 ± 0.46 | -2.22 ± 0.3
35 | CGGGAGCAAUAUUACGCACA | -2.75 ± 0.62 | -1.37 ± 1.2
36 | CCGGAGCAAUAUUACGCCUC | -4.49 ± 1 | –
37 | GCAGAGCAAUAUUACGCUCU | – | -1.58 ± 0.54
38 | GUUGAGCAAUAUUACGGGUA | – | -4.4 ± 1
39 | GAGCAGCAAUAUUACGCCUA | -0.758 ± 0.064 | 0.0984 ± 0.085
40 | CGUAAGCAAUAUUACGUGAC | -3.04 ± 0.15 | -2.33 ± 0.18
41 | GCUGAGCAAUAUUACGACGC | -4.93 ± 0.58 | –
42 | ACAGAGCAAUAUUACGCGAC | -4.22 ± 0.72 | -2.93 ± 0.74

Row | Sequence | self-splicing fitness (ln) (30 °C) | self-splicing fitness (ln) (37 °C)
43 | CGCAAGCAAUAUUACGAGAA | -0.86 ± 1 | –
44 | UGUAAGCAAUAUUACGGUAC | – | -2.2 ± 1.1
45 | CGGAAGCAAUAUUACGAGGG | -0.374 ± 0.41 | -2.72 ± 1.1
46 | GCGGAGCAAUAUUACGCCCU | – | -1.81 ± 0.56
47 | CUGGAGCAAUAUUACGGCGA | – | -3.07 ± 1
48 | AGCUAGCAAUAUUACGAGAA | -1.99 ± 0.59 | -1.46 ± 0.74
49 | CGUGAGCAAUAUUACGUUUA | – | -2.95 ± 0.53
50 | CUGGAGCAAUAUUACGAGAC | -3.88 ± 0.54 | –
51 | UCAAAGCAAUAUUACGGGGC | -2.18 ± 0.16 | -2.14 ± 0.19
52 | GCAAAGCAAUAUUACGCGUA | -0.985 ± 0.075 | -0.362 ± 0.071
53 | UCGCAGCAAUAUUACGUAAA | -1.69 ± 0.094 | -1.12 ± 0.12
54 | UGAAAGCAAUAUUACGCAUU | – | -3.87 ± 0.59
55 | UUGUAGCAAUAUUACGCAGU | -4.43 ± 0.73 | –
56 | AAUGAGCAAUAUUACGCUGG | -3.22 ± 0.2 | -2.08 ± 0.25
57 | CACGAGCAAUAUUACGUCCA | -3.49 ± 0.6 | -2.48 ± 1.1
58 | CUGCAGCAAUAUUACGAAGU | – | -3.86 ± 0.59
59 | ACAGAGCAAUAUUACGACAA | -4.72 ± 0.51 | –
60 | GAGUAGCAAUAUUACGAUCC | -1.55 ± 0.092 | -0.509 ± 0.11
61 | ACUGAGCAAUAUUACGCGGU | – | -3.21 ± 1
62 | GACAAGCAAUAUUACGGUGC | -2.77 ± 0.21 | -1.63 ± 0.24
63 | AAUGAGCAAUAUUACGGGCG | -4.51 ± 0.51 | –
